Results deposited as PubChem BioAssay AID652243 (Drosophila RNAi Screening Center, 2013)
In all, the deposit lists about 24,000 reagents; shown is a random part of those with a known target gene and a result. Of all reagents, 246 (1%) are marked active. 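Plates not normalised; calls are printed but the firefly/Renilla ratio behind them is not deposited; fold cut for lowering reported inconsistently.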 Raw values are not corrected between plates. Reagents against one gene are numbered here. Names joined by + are all predicted targets of the reagent. The record does not give: the amount of reagent.

Screen: 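Fly regulators of androgen-dependent reporter output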 (primary screen)
System: Drosophila S2R+ cells
Knock-down reagent: long dsRNA against Drosophila genes
Timing: 72 h (48 h, then 24 h hormone)
Treatment: synthetic androgen R1881 at 10 nM for 24 h
Detection: 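Firefly light from an androgen-responsive reporter and Renilla control light per well, raw and unnormalised, for each of two replicates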
Direction: firefly reporter light: higher = more light from androgen-responsive reporter; Renilla control light: higher = more constitutive control signal (cell number, transfection)
Active means: 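Hit when the log firefly-to-Renilla ratio dropped or increased by a fixed fold versus the mean of GFP or LacZ controls across duplicate plates; lowering cut given as 1.5 and as 3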
Calls: active = hit: reporter lowered or raised; inactive = no hit

Against asRNA:CR43477 + CG12256 #1, the values are firefly reporter light, replicate 1 = 1.74e5; firefly reporter light, replicate 2 = 1.26e5; Renilla control light, replicate 1 = 2.24e6; Renilla control light, replicate 2 = 1.68e6; inactive.
Against asRNA:CR43477 + CG12256 #2, the entry reads firefly reporter light, replicate 1 = 2.38e5; firefly reporter light, replicate 2 = 4.27e5; Renilla control light, replicate 1 = 1.03e6; Renilla control light, replicate 2 = 9.81e5; inactive.
Against CG6282 (GeneID 38985) #1, the entry reads firefly reporter light, replicate 1 = 8.57e5; firefly reporter light, replicate 2 = 6.81e5; Renilla control light, replicate 1 = 8.07e5; Renilla control light, replicate 2 = 9.95e5; inactive.
Knock-down of CG6282 (GeneID 38985) #2 gave: firefly reporter light, replicate 1 = 2.43e5; firefly reporter light, replicate 2 = 2.55e5; Renilla control light, replicate 1 = 7.66e5; Renilla control light, replicate 2 = 7.66e5; inactive.
Against CG1688 (GeneID 36005), the values are firefly reporter light, replicate 1 = 5.46e5; firefly reporter light, replicate 2 = 4.93e5; Renilla control light, replicate 1 = 1.53e6; Renilla control light, replicate 2 = 1.66e6; inactive.
Depletion of CG32591 (GeneID 318104) resulted in: firefly reporter light, replicate 1 = 4.39e5; firefly reporter light, replicate 2 = 3.47e5; Renilla control light, replicate 1 = 4.64e5; Renilla control light, replicate 2 = 3.21e5; inactive.
After knock-down of CG4955 (GeneID 32692) the results were firefly reporter light, replicate 1 = 1.21e5; firefly reporter light, replicate 2 = 1.47e5; Renilla control light, replicate 1 = 4.53e5; Renilla control light, replicate 2 = 6.94e5; inactive.
tun (GeneID 36743) #1 scored firefly reporter light, replicate 1 = 2.15e5; firefly reporter light, replicate 2 = 2.04e5; Renilla control light, replicate 1 = 3.97e5; Renilla control light, replicate 2 = 3.31e5; inactive.
tun (GeneID 36743) #2 scored firefly reporter light, replicate 1 = 1.04e6; firefly reporter light, replicate 2 = 9.57e5; Renilla control light, replicate 1 = 2.60e6; Renilla control light, replicate 2 = 2.80e6; inactive.
Silencing of Adi1 (GeneID 326189) #1 resulted in: firefly reporter light, replicate 1 = 2.64e5; firefly reporter light, replicate 2 = 2.47e5; Renilla control light, replicate 1 = 3.02e6; Renilla control light, replicate 2 = 3.34e6; inactive.
After knock-down of Adi1 (GeneID 326189) #2 the results were firefly reporter light, replicate 1 = 9.14e5; firefly reporter light, replicate 2 = 7.90e5; Renilla control light, replicate 1 = 2.26e6; Renilla control light, replicate 2 = 2.03e6; inactive.
For Polr1E (GeneID 42201) #1, the entry reads firefly reporter light, replicate 1 = 1.70e5; firefly reporter light, replicate 2 = 1.38e5; Renilla control light, replicate 1 = 2.33e6; Renilla control light, replicate 2 = 1.81e6; inactive.
Polr1E (GeneID 42201) #2 gave firefly reporter light, replicate 1 = 79640; firefly reporter light, replicate 2 = 78240; Renilla control light, replicate 1 = 7.21e5; Renilla control light, replicate 2 = 8.21e5; inactive.
Against CG11920 (GeneID 43009), the entry reads firefly reporter light, replicate 1 = 92043; firefly reporter light, replicate 2 = 59781; Renilla control light, replicate 1 = 6.89e5; Renilla control light, replicate 2 = 4.87e5; inactive.
CG6923 (GeneID 41420) #1 gave firefly reporter light, replicate 1 = 19220; firefly reporter light, replicate 2 = 34191; Renilla control light, replicate 1 = 2.36e5; Renilla control light, replicate 2 = 3.63e5; inactive.
Silencing of CG6923 (GeneID 41420) #2 came out at: firefly reporter light, replicate 1 = 5.47e5; firefly reporter light, replicate 2 = 8.85e5; Renilla control light, replicate 1 = 9.24e5; Renilla control light, replicate 2 = 9.24e5; inactive.
After knock-down of CG8323 (GeneID 36566), the screen gave firefly reporter light, replicate 1 = 53225; firefly reporter light, replicate 2 = 70943; Renilla control light, replicate 1 = 1.11e6; Renilla control light, replicate 2 = 1.11e6; inactive.
Ufm1 (GeneID 5740715) scored firefly reporter light, replicate 1 = 7.70e5; firefly reporter light, replicate 2 = 7.35e5; Renilla control light, replicate 1 = 1.93e6; Renilla control light, replicate 2 = 2.38e6; inactive.
Tsp42Eb + CG30160 #1 scored firefly reporter light, replicate 1 = 2.08e5; firefly reporter light, replicate 2 = 2.08e5; Renilla control light, replicate 1 = 3.52e5; Renilla control light, replicate 2 = 3.84e5; inactive.
After knock-down of Tsp42Eb + CG30160 #2 the results were firefly reporter light, replicate 1 = 4.71e5; firefly reporter light, replicate 2 = 6.31e5; Renilla control light, replicate 1 = 2.73e6; Renilla control light, replicate 2 = 2.84e6; inactive.
Knock-down of CG11664 (GeneID 31033) resulted in: firefly reporter light, replicate 1 = 2.93e5; firefly reporter light, replicate 2 = 3.34e5; Renilla control light, replicate 1 = 4.43e6; Renilla control light, replicate 2 = 3.77e6; inactive.
Knock-down of CG32856 (GeneID 318251) #1 gave: firefly reporter light, replicate 1 = 1.61e5; firefly reporter light, replicate 2 = 1.62e5; Renilla control light, replicate 1 = 2.55e5; Renilla control light, replicate 2 = 2.53e5; inactive.
For CG32856 (GeneID 318251) #2, the values are firefly reporter light, replicate 1 = 5.22e5; firefly reporter light, replicate 2 = 3.80e5; Renilla control light, replicate 1 = 1.34e6; Renilla control light, replicate 2 = 1.57e6; inactive.
Knock-down of Lrrk (GeneID 42447) #1 gave: firefly reporter light, replicate 1 = 3.85e5; firefly reporter light, replicate 2 = 4.11e5; Renilla control light, replicate 1 = 2.94e6; Renilla control light, replicate 2 = 2.76e6; inactive.
Lrrk (GeneID 42447) #2 showed firefly reporter light, replicate 1 = 6.21e5; firefly reporter light, replicate 2 = 5.01e5; Renilla control light, replicate 1 = 2.00e6; Renilla control light, replicate 2 = 1.77e6; inactive.
For Lrrk (GeneID 42447) #3, the values are firefly reporter light, replicate 1 = 2.59e5; firefly reporter light, replicate 2 = 2.31e5; Renilla control light, replicate 1 = 6.65e5; Renilla control light, replicate 2 = 5.64e5; inactive.
Knock-down of Lrrk (GeneID 42447) #4 resulted in: inactive.
Lrrk (GeneID 42447) #5 showed inactive.

Sorted by “firefly reporter light, replicate 2” (lowest first): 3 of the entries above.
CG32856 (GeneID 318251) #1: firefly reporter light, replicate 1 = 1.61e5; firefly reporter light, replicate 2 = 1.62e5; Renilla control light, replicate 1 = 2.55e5; Renilla control light, replicate 2 = 2.53e5; Outcome = inactive
CG11664 (GeneID 31033): firefly reporter light, replicate 1 = 2.93e5; firefly reporter light, replicate 2 = 3.34e5; Renilla control light, replicate 1 = 4.43e6; Renilla control light, replicate 2 = 3.77e6; Outcome = inactive
Tsp42Eb + CG30160 #2: firefly reporter light, replicate 1 = 4.71e5; firefly reporter light, replicate 2 = 6.31e5; Renilla control light, replicate 1 = 2.73e6; Renilla control light, replicate 2 = 2.84e6; Outcome = inactive
